Laboratory results as given in the supplement of paper PMC7661543.
Differences between knockout arms are mostly noise.

Tested on: HCC-38
Assay: relative cell number vs DMSO control (72 h) (% of DMSO); higher = less growth inhibition (more cells)
Procedure: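 QMAP-Seq: a pool of 5 breast cancer cell lines (ZR-75-1, SKBR3, HCC-38, MDA-MB-231, BT-20), each carrying 12 doxycycline-inducible Cas9 sgRNA perturbations (11 knockouts plus non-targeting sgNT), was treated with compounds for 72 h at four 10-fold doses (10 nM-10 uM or 1 nM-1 uM range). Barcodes were amplified and sequenced, and cell number was interpolated from 293T spike-in standard curves. The result is expressed as % of the median of DMSO wells. Two biological replicates.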

c1ccc2c(Oc3nc(Nc4ccc(N5CCOCC5)cc4)c4ncn(C5CCCCC5)c4n3)cccc2c1 [Purmorphamine]
Settings	relative cell number
sgRNA knockout: sgATF3, 10 nM	101
sgRNA knockout: sgATF3, 100 nM	105.42
sgRNA knockout: sgATF3, 1000 nM	92.3
sgRNA knockout: sgATF3, 10000 nM	73.8
sgRNA knockout: sgATF4, 10 nM	95.2
sgRNA knockout: sgATF4, 100 nM	95.3
sgRNA knockout: sgATF4, 1000 nM	89.7
sgRNA knockout: sgATF4, 10000 nM	67.7
sgRNA knockout: sgATF6, 10 nM	91.8
sgRNA knockout: sgATF6, 100 nM	82.41
sgRNA knockout: sgATF6, 1000 nM	94.85
sgRNA knockout: sgATF6, 10000 nM	65.5
sgRNA knockout: sgATG7, 10 nM	87.8
sgRNA knockout: sgATG7, 100 nM	93.9
sgRNA knockout: sgATG7, 1000 nM	86.9
sgRNA knockout: sgATG7, 10000 nM	74.7
sgRNA knockout: sgERN1, 10 nM	97.6
sgRNA knockout: sgERN1, 100 nM	98.2
sgRNA knockout: sgERN1, 1000 nM	91
sgRNA knockout: sgERN1, 10000 nM	75.6
sgRNA knockout: sgHSF1, 10 nM	79.7
sgRNA knockout: sgHSF1, 100 nM	82.6
sgRNA knockout: sgHSF1, 1000 nM	86.4
sgRNA knockout: sgHSF1, 10000 nM	82.4
sgRNA knockout: sgHSF2, 10 nM	99.2
sgRNA knockout: sgHSF2, 100 nM	112
sgRNA knockout: sgHSF2, 1000 nM	88.2
sgRNA knockout: sgHSF2, 10000 nM	78.8
sgRNA knockout: sgKEAP1, 10 nM	97.6
sgRNA knockout: sgKEAP1, 100 nM	94.6
sgRNA knockout: sgKEAP1, 1000 nM	94.9
sgRNA knockout: sgKEAP1, 10000 nM	101
sgRNA knockout: sgNFE2L2, 10 nM	101
sgRNA knockout: sgNFE2L2, 100 nM	97.3
sgRNA knockout: sgNFE2L2, 1000 nM	83
sgRNA knockout: sgNFE2L2, 10000 nM	69
sgRNA knockout: sgSLC35F2, 10 nM	95.5
sgRNA knockout: sgSLC35F2, 100 nM	90.6
sgRNA knockout: sgSLC35F2, 1000 nM	91.4
sgRNA knockout: sgSLC35F2, 10000 nM	71.2
sgRNA knockout: sgXBP1, 10 nM	102
sgRNA knockout: sgXBP1, 100 nM	98.7
sgRNA knockout: sgXBP1, 1000 nM	89.6
sgRNA knockout: sgXBP1, 10000 nM	64.7

CC(C)(C)c1ccc(S(=O)(=O)NCc2ccc(C(=O)Nc3cccnc3)cc2)cc1 [STF31]
Settings	relative cell number
sgRNA knockout: sgATF3, 10 nM	96.3
sgRNA knockout: sgATF3, 100 nM	79.9
sgRNA knockout: sgATF3, 1000 nM	86.9
sgRNA knockout: sgATF3, 10000 nM	74.7
sgRNA knockout: sgATF4, 10 nM	91
sgRNA knockout: sgATF4, 100 nM	77.6
sgRNA knockout: sgATF4, 1000 nM	92.9
sgRNA knockout: sgATF4, 10000 nM	74.9
sgRNA knockout: sgATF6, 10 nM	106
sgRNA knockout: sgATF6, 100 nM	96.2
sgRNA knockout: sgATF6, 1000 nM	86.5
sgRNA knockout: sgATF6, 10000 nM	69.8
sgRNA knockout: sgATG7, 10 nM	93.6
sgRNA knockout: sgATG7, 100 nM	78.325
sgRNA knockout: sgATG7, 1000 nM	93.8
sgRNA knockout: sgATG7, 10000 nM	77.3
sgRNA knockout: sgERN1, 10 nM	96.7
sgRNA knockout: sgERN1, 100 nM	83.44
sgRNA knockout: sgERN1, 1000 nM	84.8
sgRNA knockout: sgERN1, 10000 nM	74.6
sgRNA knockout: sgHSF1, 10 nM	107
sgRNA knockout: sgHSF1, 100 nM	103
sgRNA knockout: sgHSF1, 1000 nM	78
sgRNA knockout: sgHSF1, 10000 nM	61
sgRNA knockout: sgHSF2, 10 nM	102
sgRNA knockout: sgHSF2, 100 nM	81.6
sgRNA knockout: sgHSF2, 1000 nM	91.7
sgRNA knockout: sgHSF2, 10000 nM	77.8
sgRNA knockout: sgKEAP1, 10 nM	132
sgRNA knockout: sgKEAP1, 100 nM	94.7
sgRNA knockout: sgKEAP1, 1000 nM	70.9
sgRNA knockout: sgKEAP1, 10000 nM	85.8
sgRNA knockout: sgNFE2L2, 10 nM	79.5
sgRNA knockout: sgNFE2L2, 100 nM	70.4
sgRNA knockout: sgNFE2L2, 1000 nM	86.5
sgRNA knockout: sgNFE2L2, 10000 nM	76.4
sgRNA knockout: sgSLC35F2, 10 nM	85.1
sgRNA knockout: sgSLC35F2, 100 nM	83.2
sgRNA knockout: sgSLC35F2, 1000 nM	92.5
sgRNA knockout: sgSLC35F2, 10000 nM	72.1
sgRNA knockout: sgXBP1, 10 nM	90.4
sgRNA knockout: sgXBP1, 100 nM	75.4
sgRNA knockout: sgXBP1, 1000 nM	95.5
sgRNA knockout: sgXBP1, 10000 nM	73.3

CN1CCN(CCOc2cc(OC3CCOCC3)c3c(Nc4c(Cl)ccc5c4OCO5)ncnc3c2)CC1 [Saracatinib]
Settings	relative cell number
sgRNA knockout: sgATF3, 10 nM	79.9
sgRNA knockout: sgATF3, 100 nM	92.1
sgRNA knockout: sgATF3, 1000 nM	80.4
sgRNA knockout: sgATF3, 10000 nM	67
sgRNA knockout: sgATF4, 10 nM	79.3
sgRNA knockout: sgATF4, 100 nM	82.6
sgRNA knockout: sgATF4, 1000 nM	81.1
sgRNA knockout: sgATF4, 10000 nM	70.4
sgRNA knockout: sgATF6, 10 nM	86.9
sgRNA knockout: sgATF6, 100 nM	98.2
sgRNA knockout: sgATF6, 1000 nM	81.7
sgRNA knockout: sgATF6, 10000 nM	59.8
sgRNA knockout: sgATG7, 10 nM	80.3
sgRNA knockout: sgATG7, 100 nM	89.4
sgRNA knockout: sgATG7, 1000 nM	79.5
sgRNA knockout: sgATG7, 10000 nM	66.2
sgRNA knockout: sgERN1, 10 nM	80.5
sgRNA knockout: sgERN1, 100 nM	97.4
sgRNA knockout: sgERN1, 1000 nM	76.6
sgRNA knockout: sgERN1, 10000 nM	63.9
sgRNA knockout: sgHSF1, 10 nM	97.5
sgRNA knockout: sgHSF1, 100 nM	87.7
sgRNA knockout: sgHSF1, 1000 nM	72.2
sgRNA knockout: sgHSF1, 10000 nM	53.5
sgRNA knockout: sgHSF2, 10 nM	83
sgRNA knockout: sgHSF2, 100 nM	85.1
sgRNA knockout: sgHSF2, 1000 nM	81
sgRNA knockout: sgHSF2, 10000 nM	67
sgRNA knockout: sgKEAP1, 10 nM	101
sgRNA knockout: sgKEAP1, 100 nM	95.1
sgRNA knockout: sgKEAP1, 1000 nM	93
sgRNA knockout: sgKEAP1, 10000 nM	51.2
sgRNA knockout: sgNFE2L2, 10 nM	75.1
sgRNA knockout: sgNFE2L2, 100 nM	79.9
sgRNA knockout: sgNFE2L2, 1000 nM	70.3
sgRNA knockout: sgNFE2L2, 10000 nM	66.8
sgRNA knockout: sgSLC35F2, 10 nM	81.6
sgRNA knockout: sgSLC35F2, 100 nM	96.1
sgRNA knockout: sgSLC35F2, 1000 nM	77.7
sgRNA knockout: sgSLC35F2, 10000 nM	67.46
sgRNA knockout: sgXBP1, 10 nM	78.87
sgRNA knockout: sgXBP1, 100 nM	89
sgRNA knockout: sgXBP1, 1000 nM	81.5
sgRNA knockout: sgXBP1, 10000 nM	69
